Earlier results on 1 compound are cited in patent publication US10793550B2, “4-piperidin-n-(pyrimidin-4-yl)chroman-7-sulfonamide derivatives as sodium channel inhibitors” (GENENTECH, INC., priority 2017, dated 2020).

For the data set the following is noted: administered topically (Lidoderm patch); NDA 20-612; cited from earlier work.

Take `CCN(CC)CC(=O)Nc1c(C)cccc1C` [lidocaine]: the plasma concentrations entry is reported as “about 1 μM”.
